PMC11844287
Results are given in words; binding and its absence hold for the method and conditions named. In cells and extracts the contact can be indirect. A yes stands for co-enrichment or nearness to the bait. Other partners may have been found.

Amino acid sequences for entries named in this document (tags omitted).
UniProt Q15717: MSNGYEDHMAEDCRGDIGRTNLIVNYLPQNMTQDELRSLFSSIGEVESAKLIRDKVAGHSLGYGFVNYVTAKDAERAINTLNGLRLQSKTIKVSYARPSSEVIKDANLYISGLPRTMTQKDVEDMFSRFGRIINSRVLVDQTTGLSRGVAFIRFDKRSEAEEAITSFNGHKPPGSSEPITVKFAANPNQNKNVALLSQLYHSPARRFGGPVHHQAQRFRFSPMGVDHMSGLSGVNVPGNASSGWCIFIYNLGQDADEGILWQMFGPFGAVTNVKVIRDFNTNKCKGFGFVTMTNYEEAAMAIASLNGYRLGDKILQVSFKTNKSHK

Target: T1, B cell receptor associated protein 31 (BAP31) (human (endogenous in HCC cells)) (UniProt P51572)
T1 sequence: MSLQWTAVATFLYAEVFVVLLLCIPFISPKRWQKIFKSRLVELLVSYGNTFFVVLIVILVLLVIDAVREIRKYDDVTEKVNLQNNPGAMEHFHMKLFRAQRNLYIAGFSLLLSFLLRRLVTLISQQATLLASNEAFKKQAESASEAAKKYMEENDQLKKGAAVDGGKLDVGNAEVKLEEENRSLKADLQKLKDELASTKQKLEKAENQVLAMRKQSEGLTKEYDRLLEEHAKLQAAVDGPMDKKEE
Experiment: affinity purification with mass spectrometry; cell lysate with anti-BAP31 mouse monoclonal antibody or mouse IgG isotype and Protein A/G PLUS-Agarose, overnight; differential Coomassie-stained gel spots analysed by LC-MS/MS

For “embryonic lethal abnormal vision like 1 (ELAVL1) (from UniProt Q15717 1-326)”, which binding is on record?
The binding was “binds”.
